Data published in patent publication US8129547B2, “Anticoagulation of human blood ex vivo” (priority 2006, dated 2012).
For at least one compound, name, drawing or mass did not settle the structure. Some of these results come from one statement about several compounds together.

Columns and labels:
[1] = tested on: human vein blood; experiment: Storage of human vein blood after anticoagulation with inhibitor (F1+2 immunoassay); conditions: for thrombin newly formed (evidence through F1+2 fragment): during the respective anticoagulation period of stored blood; for Anticoagulation time: concentration in the blood 500 μM; for time for which coagulation is prevented: in the concentrations indicated (Table 2)
Protocol: In the sense of the invention anticoagulation means that the re-formation of thrombin is inhibited in the sampled blood. According to the invention thrombin re-formation is inhibited when no more than 1 nM of thrombin is re-formed in the sampled blood. As described above, the activation of prothrombin to thrombin represents an essential step in the blood coagulation cascade. In this case the prothrombin fragment 1+2 (F1+2) is released in equivalent quantities. It is therefore possible to quantify the thrombin actually formed by determining the fragment produced, thus enabling the prothrombin fragment F1+2 to be used as an indirect marker of an activation of prothrombin to thrombin. The concentration of the prothrombin fragment F1+2 formed may be determined immunologically, for example, with commercial enzyme immunoassays (for example Enzygnost F1+2 micro, Dade Behring GmbH, Marburg).
According to the invention anticoagulation therefore means that no more than 1 nM of prothrombin fragment F1+2 is newly formed in the blood after its sampling. […] Without suitable treatment of the blood to prevent coagulation there is an increase in the concentration of the prothrombin fragment F1+2 in this example to well over 1.3 nM, within a few minutes, due to the plasmatic coagulation, i.e. the blood coagulates.
In this experiment it was determined how long human vein blood can be stored without the formation of thrombin or activation of thrombocytes.
For this purpose blood (9 parts) sampled from a patient was mixed with inhibitor solution (0.05 mM, 0.5 mM or 5 mM in physiological NaCl solution; 1 part). Some of the blood was stored at 25° C., the remainder in the refrigerator at 4° C. The quantity of thrombin formed was determined immunologically during storage based on the formation of the prothrombin fragment F1+2 (Enzygnost F1+2 micro, Dade Behring GmbH, Marburg). […] In this case it is irrelevant whether the blood samples were kept at room temperature (approx. 25° C.) or at 4° C.
For this purpose blood (9 parts) sampled from a patient was mixed with inhibitor solution (0.05 mM, 0.5 mM or 5 mM in physiological NaCl solution; 1 part) and stored at room temperature (about 22±2° C.). The quantity of thrombin formed was determined immunologically during storage based on the formation of the prothrombin fragment F1+2 (Enzygnost F1+2 micro, Dade Behring GmbH, Marburg). It was shown that BAPA′ is capable of keeping anticoagulated blood uncoagulated at a concentration in the blood of 500 μM or 50 μM for more than 48 hours (Table 4). At a concentration of 5 μM BAPA′ prevents coagulation for more than 8 hours.

[2] = tested on: thrombin formation; experiment: Inhibition of thrombin formation (prothrombin fragment F1+2) in hirudin-anticoagulated plasma after activation by kaolin; assay type: biochemical, human
Protocol: In this example thrombin formation was activated in plasma anticoagulated with hirudin by the addition of kaolin and the ability of the inhibitors to inhibit thrombin formation was examined.
Blood sampled from a patient was initially anticoagulated by means of the thrombin inhibitor hirudin. For this purpose 9 parts of blood were mixed with 1 part of hirudin solution (recombinant hirudin HBW 023, Hoechst, Frankfurt, 2000 E/ml of physiological NaCl solution), then centrifuged for 10 minutes at 1300 revolutions per minute (rpm). 900 μl of the plasma anticoagulated with hirudin, present in excess, were mixed in polypropylene tubes with 50 μl of inhibitor solution or 0.9% NaCl solution and 50 μl kaolin suspension (from APTT-Test from Roche Diagnostics, diluted 1:250 before use with physiological NaCl solution), and incubated at 37° C. with light shaking. In this case kaolin acts as a non-physiological surface which activates the blood coagulation thereby finally stimulating thrombin formation. At certain times the quantity of the thrombin formed was determined immunologically on the basis of the formation of the prothrombin fragment F1+2 (Enzygnost F1+2 micro, Dade Behring GmbH, Marburg). This determination is based on an enzyme immunoassay according to the sandwich principle. […] This was then determined photometrically at a wavelength of 492 nm. […]

[3] = tested on: thrombocytes; experiment: Induced activation of thrombocytes after anticoagulation with BAPA′ or citrate (TPA, IPA, PPA, PFA-100 closure times); assay type: cell-based, human; conditions: compared to citrate; Monovettes prefilled with 500 μmols/l, 1 part to 9 parts blood; 2-24 h, 22±2° C.

| SMILES | thrombin newly formed (evidence through F1+2 fragment) [1] | time for which coagulation is prevented [1] [h] | other results |
| --- | --- | --- | --- |
| COC(=O)[C@H](Cc1cccc(C(=N)N)c1)[C@@H](C)NC(=O)c1ccc(-c2cc[n+]([O-])cc2)cc1 (mixture of isomers) [Otamixaban, 2-(R)-(3-carbamimidoylbenyzyl)-3-(R)-[4-(1-oxypyridin-4-yl)benzoylamino]-butyric acid-methylester] | less than 1 nM | – | – |
| N=C(N)NCCC[C@@H](NS(=O)(=O)Cc1ccccc1)C(=O)N1CCC[C@H]1C(=O)NCc1ccc(C(=N)N)cc1 [BAPA′, benzylsulphonyl-D-arginyl-prolyl-4-amidinobenzylamide] | less than 1 nM | – | suppression/blocking of thrombin formation after kaolin activation ([2]; 37° C., concentration not stated in the sentence (FIGS. 1-3, 6)): effectively suppressing the thrombin formation; blocking of thrombin formation after kaolin activation ([2]; inhibitor 0.1 μM): > 97%; storage stability of the samples in terms of thrombocyte aggregability [3]: much higher storage stability |
| N=C(N)NCCC[C@@H](NS(=O)(=O)Cc1ccccc1)C(=O)NCC(=O)NCc1ccc(C(=N)N)cc1 [CJ-FXa, benzylsulphonyl-D-arginyl-glycyl-4-amidinobenzylamide] | less than 1 nM | – | Anticoagulation time ([1]; 4° C.): more than 48 h; Anticoagulation time ([1]; 25° C.): more than 48 h |
| CC(=N)N1CC[C@H](Oc2ccc([C@H](Cc3ccc4ccc(C(=N)N)cc4c3)C(=O)O)cc2)C1 [DX-9065a] | – | ≤ 12 | – |
| N=C(N)c1ccc(C=C2CCCCC(=Cc3ccc(C(=N)N)cc3)C2=O)cc1 [Pefabloc tPA/Xa, 2,7-bis(4-amidinobenzylidene)-cycloheptanone-(1)] | – | ≤ 12 | – |
